{
  "source": "paper PMC2639705",
  "about": "“Two Chromogranin A-Derived Peptides Induce Calcium Entry in Human Neutrophils by Calmodulin-Regulated Calcium Independent Phospholipase A2” (PLoS ONE, 2009)",
  "test_system": "PMNs",
  "test": "HPLC and NanoLC-MS/MS proteomic analysis of PMN secretions induced by CHR and CAT",
  "conditions": "Biological sample name Castestatin_11; MS/MS sample name F011563 (F013479); Mascot, SwissProt 55.5, trypsin; Protein Thresholds: 1 peptides score > 52 or at least 2 peptides with score >20",
  "note": "Entries after “also recorded” stand apart in the source; their conditions may differ.",
  "data": [
    {"substance": "Castestatin (SSMKLSFRARAYGFRGPGPQL; Catestatin; UniProt P10645 370-390, looked up)", "values": [
      {"measurement": "Protein name (protein identified by MS/MS in PMN secretion sample)", "value": "Gelsolin precursor - Homo sapiens (Human); also recorded: Beta-2-microglobulin precursor [Contains: Beta-2-microglobulin form pI 5.3] - Homo sapiens (Human); also recorded: Matrix metalloproteinase-9 precursor - Homo sapiens (Human); also recorded: Profilin-1 - Homo sapiens (Human); also recorded: Lactotransferrin precursor - Homo sapiens (Human)"}
    ]}
  ]
}
